Reference: PubChem BioAssay AID540276 (National Center for Advancing Translational Sciences (NCATS), 2011)
“And” between values parts separate entries of the source, which are not always exact repeats. Equal values may be shown once. The whole screen tested about 300,000 compounds, of which about 5,400 (1.8%) were called active. This list was built around the results that the source calls inconclusive (neither active nor inactive); the mix of calls is not that of the screen. Calls come from the whole dose curve; tested in HEK293 cells. Potencies of inconclusive entries are doubtful fits and often do not repeat.

assay: qHTS for inhibitors of binding or entry into cells for Marburg Virus; settings: Marburg virus pseudotyped entry inhibition, cell reporter; series mostly up to 37.8 µM
Potency is the fitted concentration of half-maximal effect.

**Q.** For COc1ccc(OC)c(S(=O)(=O)N(C)CC(=O)Nc2cc(Cl)ccc2OC)c1, which Potency is on record?
**A.** inactive

**Q.** For COc1ccc(C(=O)CC(c2ccccc2)S(=O)(=O)c2ccc(C)cc2)cc1 (stereo unspecified), which Potency is on record?
**A.** inactive

**Q.** For CNC(=S)N/N=C/c1ccc(N(C)C)cc1, which Potency is on record?
**A.** inactive

**Q.** Which Potency does the source give for Cc1ccc2nc(CCCc3nc4ccc(C)cc4[nH]3)[nH]c2c1 here?
**A.** inconclusive: 20 µM [inhibitor, single point]

**Q.** With O=C(CN(c1ccccc1Cl)S(=O)(=O)c1ccccc1)N/N=C/c1ccccc1C(=O)O as the compound, how does the Potency read?
**A.** inactive

**Q.** For Cc1ccc(CN(CC(=O)N/N=C/c2ccccc2[N+](=O)[O-])S(=O)(=O)c2ccc(C)cc2)cc1, which Potency is on record?
**A.** inconclusive: 2.51 µM [inhibitor, partial curve, poor fit]

**Q.** For Cc1ccc(S(=O)(=O)N2CCN(C)CC2)c(C)c1, which Potency is on record?
**A.** inactive

**Q.** For O=C(COc1cccc(NC(=O)c2ccccc2)c1)c1ccc(F)cc1, which Potency is on record?
**A.** inconclusive: 2.24 µM [inhibitor, full curve]

**Q.** With COc1ccc(NC(=O)CSc2n[nH]c(-c3ccncc3)n2)c([N+](=O)[O-])c1 as the compound, how does the Potency read?
**A.** inconclusive: 0.891 µM [activator, full curve]

**Q.** With Cn1nc(C(C)(C)C)cc1C(=O)O as the compound, how does the Potency read?
**A.** inactive

**Q.** For c1ccc(-c2cccs2)nc1, which Potency is on record?
**A.** inconclusive: 6.31 µM [activator, single point]

**Q.** For CCOc1ccc(NC(=O)CC2C(=O)N(c3ccccc3)C(=O)N2CCc2cccs2)cc1 (stereo unspecified), which Potency is on record?
**A.** inconclusive: 8.91 µM [inhibitor, partial curve] and inconclusive: 1.26 µM [inhibitor, partial curve, poor fit]

**Q.** With O=C1c2ccccc2C(=O)N1CCC(O)C[N+](=O)[O-] (stereo unspecified) as the compound, how does the Potency read?
**A.** inconclusive: 22.4 µM [activator, single point]

**Q.** With CNC(=O)C(C)c1ncc(C(F)(F)F)cc1Cl (stereo unspecified) as the compound, how does the Potency read?
**A.** inactive

**Q.** For C=CCSc1cc(C)nc2c(-c3ccccc3)c(C)nn12, which Potency is on record?
**A.** inconclusive: 5.62 µM [activator, single point]

**Q.** For OCCN(Cc1ccccc1)Cc1ccccc1O, which Potency is on record?
**A.** inconclusive: 32.6 µM [activator, single point]

**Q.** With CC1CCCC(NC(=O)COC(=O)[C@@H]2CC(O)CN2S(=O)(=O)c2ccc3c(c2)OCCO3)C1C (stereo partly specified) as the compound, how does the Potency read?
**A.** inconclusive: 20 µM [activator, partial curve, poor fit]

**Q.** Which Potency does the source give for CC(C)(C)CC(=O)Nc1ccc(S(=O)(=O)N2CCCC2)cc1 here?
**A.** inconclusive: 3.16 µM [activator, partial curve, poor fit]

**Q.** With COc1ccc(/C=N/NC(=O)c2ccc(NC(=O)c3ccccc3Br)cc2)cc1 as the compound, how does the Potency read?
**A.** inactive

**Q.** For Cc1ccc(NC(=O)C(C)C(=O)Nc2ccc(C)cc2)cc1, which Potency is on record?
**A.** inactive

**Q.** With CN(C)/C=C/C(=O)C(Cl)(Cl)Cl as the compound, how does the Potency read?
**A.** inactive

**Q.** Which Potency does the source give for CCC(OC(=O)C(C)N1C(=O)C(=O)c2ccccc21)C(=O)Nc1ccccc1OC (stereo unspecified) here?
**A.** inconclusive: 16.4 µM [inhibitor, partial curve, poor fit]

**Q.** With COc1cc2[nH]c(C(=O)NCC3CCCO3)cc2c(OC)c1OC (stereo unspecified) as the compound, how does the Potency read?
**A.** inactive

**Q.** With C/C(=C\c1ccccc1F)C(=O)c1c(C)cc(C)[nH]c1=O as the compound, how does the Potency read?
**A.** inactive

**Q.** For Cc1ccc2cc3cc(C(=O)N4CCN(c5ccc(Cl)cc5)CC4)oc3nc2c1, which Potency is on record?
**A.** inactive

**Q.** For COc1ccc(OC)c(N(CC(=O)N2CCN(c3cc(Cl)ccc3C)CC2)S(C)(=O)=O)c1, which Potency is on record?
**A.** inconclusive: 23.1 µM [inhibitor, single point]

**Q.** For Cc1ccc(N(CC(=O)N2CCN(c3cccc(Cl)c3)CC2)S(=O)(=O)c2c(C)noc2C)cc1, which Potency is on record?
**A.** inconclusive: 35.5 µM [inhibitor, single point]

**Q.** With Cn1c(=O)c([N+](=O)[O-])c(Cl)c2ccccc21 as the compound, how does the Potency read?
**A.** inconclusive: 2.82 µM [inhibitor, partial curve, poor fit]

**Q.** Which Potency does the source give for Cc1nn(C(C)(C)C)c(OC(=O)c2ccc3c(c2)OCO3)c1Sc1ccccc1 here?
**A.** inconclusive: 7.08 µM [inhibitor, full curve, poor fit]

**Q.** Which Potency does the source give for O=C(NCc1ccccc1)c1ccc(-c2ccccc2F)o1 here?
**A.** inconclusive: 2.91 µM [activator, single point]

**Q.** Which Potency does the source give for Cc1[nH]c2ccccc2c1C(=O)C(=O)NCCOc1ccccc1 here?
**A.** inconclusive: 14.1 µM [inhibitor, single point]

**Q.** For Cn1c(=N)n(CC(=O)C(C)(C)C)c2ccccc21, which Potency is on record?
**A.** inactive

**Q.** For COc1ccc(S(=O)(=O)N2CCOCC2)cc1C(=O)NCC(c1ccccc1)c1ccccc1, which Potency is on record?
**A.** inconclusive: 31.6 µM [inhibitor, single point]

**Q.** With COc1ccc(Cl)cc1NC(=O)NCCn1c(=O)oc2ccc(C)cc21 as the compound, how does the Potency read?
**A.** inactive

**Q.** Which Potency does the source give for CCOc1ccc2[nH]c(=O)c(CN(CCc3ccccc3)C(=O)N3CCOCC3)cc2c1 here?
**A.** inconclusive: 6.31 µM [inhibitor, single point]

**Q.** Which Potency does the source give for CCn1ccnc1CN(C)Cc1nc(-c2ccc3c(c2)OCO3)no1 here?
**A.** inconclusive: 10 µM [activator, partial curve]

**Q.** With COc1ccc(NC(=O)C/C(C)=N/NC(=O)c2ccncc2)c([N+](=O)[O-])c1 as the compound, how does the Potency read?
**A.** inconclusive: 1.41 µM [inhibitor, partial curve, poor fit]

**Q.** Which Potency does the source give for O=C(c1ccccc1)N1CCC(O)(c2ccc3c(c2)OCO3)CC1 here?
**A.** inactive

**Q.** Which Potency does the source give for O=C(Cc1cccs1)N1CCCC(c2nc3c(nnn3Cc3ccccc3Cl)c(=O)[nH]2)C1 (stereo unspecified) here?
**A.** inactive

**Q.** Which Potency does the source give for COc1ccccc1NC(=O)CN1CCN(CC(=O)Nc2ccc(F)cc2F)CC1 here?
**A.** inconclusive: 6.31 µM [inhibitor, partial curve, poor fit]

**Q.** Which Potency does the source give for Cc1ccc(Cl)cc1-n1nnc(-c2nsc(NC(=O)c3ccccc3Cl)n2)c1C here?
**A.** inconclusive: 7.94 µM [activator, partial curve]

**Q.** Which Potency does the source give for CCOc1ccc(C(=O)NCC(=O)OC2CCOC2=O)cc1OCC (stereo unspecified) here?
**A.** inactive

**Q.** For COc1ccc(-c2nc(CS(=O)CC(=O)NCCc3ccccc3)c(C)o2)cc1OC (stereo unspecified), which Potency is on record?
**A.** inactive

**Q.** With COc1ccc(C(=O)Nc2ccc3nc4c(c(Nc5ccc(OC)c(OC)c5)c3c2)CCCC4)c(OC)c1 as the compound, how does the Potency read?
**A.** inconclusive: 20 µM [inhibitor, single point]

**Q.** With CC(C)Oc1ccc(CCC(=O)N/N=C/c2ccncc2)cc1 as the compound, how does the Potency read?
**A.** inactive

**Q.** With CCOC(=O)c1cc2c(=O)n3ccccc3nc2n(CC(C)C)c1=NC(=O)COc1ccc(Cl)cc1 as the compound, how does the Potency read?
**A.** inactive

**Q.** For COc1ccc(NC(=O)c2c(SC)nsc2SC)cc1, which Potency is on record?
**A.** inconclusive: 12.6 µM [activator, single point]

**Q.** With Cc1ccc(-n2cc(CNCCCn3ccnc3C)c(-c3ccc(F)cc3)n2)cc1 as the compound, how does the Potency read?
**A.** inconclusive: 14.1 µM [inhibitor, partial curve, poor fit]

**Q.** Which Potency does the source give for CC(=O)Nc1ccc(C(=O)CN2C(=O)CSC2=O)cc1 here?
**A.** inconclusive: 5.62 µM [inhibitor, single point]

**Q.** For CCN1CCN(c2ccc(S(=O)(=O)N3CCCCC3)cc2NC(=O)COc2cc(C)ccc2Cl)CC1, which Potency is on record?
**A.** inconclusive: 15.8 µM [inhibitor, single point]

**Q.** With Cc1ccc2nsnc2c1S(=O)(=O)N(CCO)Cc1cc2cc3c(cc2[nH]c1=O)OCCO3 as the compound, how does the Potency read?
**A.** inactive

**Q.** Which Potency does the source give for COC(=O)c1ccccc1NC(=S)N(Cc1ccc2c(c1)OCO2)Cc1cc2cc(OC)ccc2[nH]c1=O here?
**A.** inconclusive: 10 µM [inhibitor, single point]

**Q.** With CCOC(=O)c1c(C)oc2ccc(NS(=O)(=O)c3cccs3)cc12 as the compound, how does the Potency read?
**A.** inconclusive: 20.6 µM [inhibitor, single point]

**Q.** With C=CCN1C(=O)/C(=C\c2ccc(N3CCOCC3)o2)C(=O)NC1=S as the compound, how does the Potency read?
**A.** inactive

**Q.** Which Potency does the source give for CCc1cccc(NC(=S)N2CCC(c3ccccc3)C2)c1 (stereo unspecified) here?
**A.** inconclusive: 35.5 µM [inhibitor, single point]

**Q.** With CCN(c1ccc(NC(=O)c2ccc(N3CCCC3=O)cc2)cc1)C(C)C as the compound, how does the Potency read?
**A.** inconclusive: 22.4 µM [inhibitor, partial curve, poor fit]

**Q.** Which Potency does the source give for CCCN(CC(=O)Nc1ccccc1C)C(=O)c1cnc(C)cn1 here?
**A.** inconclusive: 31.6 µM [activator, single point]

**Q.** Which Potency does the source give for Cc1ccc(CNCCc2ccc(F)cc2)s1 here?
**A.** inconclusive: 4.47 µM [inhibitor, full curve]

**Q.** With O=C1CCCCC1Sc1nnc(-c2ccc3c(c2)OCO3)o1 (stereo unspecified) as the compound, how does the Potency read?
**A.** active: 5.62 µM

**Q.** With Cc1cc(C)n(Cc2cc(C(=O)O)c3ccccc3n2)n1 as the compound, how does the Potency read?
**A.** inactive

**Q.** Which Potency does the source give for OCc1nnn(-c2cccc(C(F)(F)F)c2)c1CO here?
**A.** inconclusive: 0.178 µM [activator, full curve, poor fit]

**Q.** For CCC(=O)Nc1ccc(CC)cc1-c1nc2ccccc2n(CC(=O)Nc2cccc(OC)c2)c1=O, which Potency is on record?
**A.** inactive

**Q.** Which Potency does the source give for CC(=O)OC1CC(OC2C(O)CC(OC3C(O)CC(OC4CCC5(C)C(CCC6C5CCC5(C)C(C7=CC(=O)OC7)C(O)CC65O)C4)OC3C)OC2C)OC(C)C1OC1OC(CO)C(O)C(O)C1O (stereo unspecified) here?
**A.** active: 0.178 µM

**Q.** For CC1CCCCN1c1c(S(=O)(=O)c2ccc(Cl)cc2)cnc2ccccc12 (stereo unspecified), which Potency is on record?
**A.** inactive

**Q.** With Fc1ccc(NC(=S)Nc2cccnc2)c(Cl)c1 as the compound, how does the Potency read?
**A.** inactive

**Q.** For CCCC(=O)N1N=C(c2ccccc2)CC1c1cn(C)c2ccccc12 (stereo unspecified), which Potency is on record?
**A.** inconclusive: 29.1 µM [inhibitor, single point]

**Q.** With COc1cc(C(=O)N/N=C/c2ccc3c(c2)c2ccccc2n3C)ccc1O as the compound, how does the Potency read?
**A.** inconclusive: 35.5 µM [inhibitor, single point]

**Q.** For CCOc1ccc(C(F)(F)F)cc1NC(C)=O, which Potency is on record?
**A.** inconclusive: 17.8 µM [activator, single point]

**Q.** For Nc1[nH]n2c(=O)cc(-c3ccccc3)nc2c1N=Nc1ccccc1, which Potency is on record?
**A.** inconclusive: 8.91 µM [inhibitor, partial curve, poor fit]

**Q.** With CCOC(=O)c1cc(-c2ccccc2)nc2nc(N3CCCCC3)sc12 as the compound, how does the Potency read?
**A.** inactive

**Q.** For Cc1cccc(Nc2nnc(SCC(=O)NC(=O)Nc3ccc4c(c3)OCCO4)s2)c1, which Potency is on record?
**A.** inconclusive: 20 µM [inhibitor, single point]
